Measured values from patent US8227424B2, “Collagen peptide, dipeptide and malady inhibitor” (Nitta Gelatin Inc., priority 2008, dated 2012).
Not every detail of the peptide structures is certain; ends, links or a residue may be inferred. Marks after values point to notes of the source that are not given here. Square brackets hold non-standard residues; d marks the D form. Peptide text beside a SMILES is read from it. Hyp = O=C(O)[C@@H]1C[C@@H](O)CN1

Legend:
[1] = test system: precursory cartilage cell stock ATDC5; test: Evaluation Test 1-3: inhibition of degeneration of cartilage cells (ALP); format: cell-based; settings: ATDC5, 2.5 mmol/L end concentration, after 5 days culture, control (blank) = 100
Protocol: The Hyp-Gly, a 1:1 mixture of the Hyp-Gly and the Pro-Hyp and a 1:1:1 mixture of the Hyp-Gly, the Pro-Hyp and the Ala-Hyp were used, and each dipeptide was added to a precursory cartilage cell stock ATDC5 culture liquid so as to be 2.5 mmol/L in end concentration. After 5 days from the culture, each inhibition activity of alkaline phosphatase (ALP) being a marker enzyme for hypertrophied cartilages and calcification was examined. In the same way, the ALP activity when using the other dipeptides (Pro-Hyp, Ala-Hyp, Leu-Hyp, Phe-Hyp, Ser-Hyp), the tripeptide (Pro-Hyp-Gly) and the amino acids (Pro, Hyp) was examined. Furthermore, as a control, the ALP activity when adding no peptide (blank) was also examined.

[2] = test system: osteoclasts; test: Evaluation Test 1-1: Pit assay, osteoclasts cultured on dentin slices; format: cell-based, mouse; settings: control (blank) = 100, n = 6; for Relative number (%) of TRAP positive multinucleate giant cells (osteoclasts) in culture on dentin slices: culture about 1 week on dentin slices; for Relative number (%) of Pit: number of absorption pits on dentin slices, culture about 1 week
Protocol: In addition, the degree of inhibition of differentiation and activation of osteoclasts by the various peptides and amino acids was evaluated by the following Pit assay. That is to say, the Pit assay where osteoclasts were cultured on […] was carried out in accordance with Kakudo S, et al. (1996). J. Bone Miner. Metab. 14: 129-136, specifically, as follows.
Precursory cells of osteoclasts derived from young mouse […] were freeze-preserved at −80° C. together with a bone marrow stroma cells-containing suspension in the presence of 10% DMSO, thereby making matured osteoclasts extinct.
These cells of 2.0×10^5 in number were seeded into each well of a 96-well plate where dentin slices were set, and each peptide to be tested was added to the culture liquid, and culture was carried out at 37° C. in 5% CO2 for about 1 week. Thereafter, cells were removed from the dentin slices by a silicon-made rubber POLICEMAN, and then the dentin slices were dyed with an […] for several minutes. Hereupon, the number of TRAP dyeing positive multinucleate giant cells (osteoclasts) was counted by the TRAP dyeing, and the number relative to the number of cells in the control (blank) was calculated. Thereafter, the Pit number (number of absorption pits) by osteoclasts was counted under a microscope, and the degree of inhibition of activity of osteoclasts by each peptide to be tested was indicated by the ratio relative to the blank (control).

[3] = test system: osteoclasts (primary mouse bone marrow cell culture); test: Evaluation Test 1-1: osteoclast differentiation culture on plastic Petri dish (TRAP); format: cell-based; settings: 625 μM end concentration, after 6 days culture, control (blank) = 100, n = 6
Protocol: The evaluation was carried out in accordance with Kobayashi Y. et al.'s osteoclast differentiation culture method [J. Bone Miner. Metab. (2004) 22: p. 318-328].
That is to say, the Hyp-Gly and a 1:1 mixture of the Hyp-Gly and the Pro-Hyp were used, and each of them was added to a primary mouse bone marrow cell culture liquid so as to be 625 μM in end concentration. After 6 days from the culture, each inhibition activity of tartaric acid resistant acid phosphatase (TRAP) being a marker enzyme was examined. In the same way, the TRAP inhibition activity when using the other dipeptides (Pro-Hyp, Ala-Hyp, Leu-Hyp, Phe-Hyp, Ser-Hyp), the tripeptide (Pro-Hyp-Gly) and the amino acids (Pro, Hyp) was examined. Furthermore, as a control, the TRAP inhibition activity when adding no peptide (blank) was also examined.

[4] = test system: osteoblast stock MC3T3-E1; test: Evaluation Test 1-2: promotion of differentiation and activation of osteoblasts (ALP); format: cell-based; settings: MC3T3-E1, 2.5 mmol/L end concentration, after 10 days culture, control (blank) = 100
Protocol: Each of dexamethasone (end concentration: 1 nmol/L), β-glycerophosphoric acid (end concentration: 5 mmol/L), and ascorbic acid (end concentration: 100 μg/mL) was added to an osteoblast stock MC3T3-E1 culture liquid, and then the Hyp-Gly and a 1:1 mixture of the Hyp-Gly and the Pro-Hyp were used, and each of them was added to the aforementioned culture liquid so as to be 2.5 mmol/L in end concentration. After 10 days from the culture, each promotion activity of alkaline phosphatase (ALP) being a marker enzyme for differentiation and calcification of osteoblasts was examined. In the same way, the ALP promotion activity when using the other dipeptides (Pro-Hyp, Ala-Hyp, Leu-Hyp, Phe-Hyp, Ser-Hyp), the tripeptide (Pro-Hyp-Gly) and the amino acids (Pro, Hyp) was examined. Furthermore, as a control, the ALP promotion activity when adding no peptide (blank) was also examined.

[5] = test system: C57BL/6J mice; test: Evaluation Test 1-6: oral ingestion, articular cartilage evaluation; format: in vivo, mouse; settings: oral feed (Table 7, potassium phosphate diet) 3 weeks, n = 4
[6] = test system: Wister strain male rats; test: Evaluation Test 1-4: recovery of tropocollagen amount in skin dermis after skin wound; format: in vivo, rat
[7] = test system: C57BL/6J mice; test: Evaluation Test 1-7: injection into articular cavity, pathologic evaluation; format: in vivo, mouse; settings: 0.5 mL of 5 mmol/L injected into articular cavity of C group mice
[8] = test system: C57BL/6J mice; test: Evaluation Test 2-5: Pro-Hyp injection into articular cavity, pathologic evaluation; format: in vivo, mouse; settings: 0.5 mL of 5 mmol/L injected into articular cavity of C group mice
[9] = test system: precursory cartilage cell stock ATDC5; test: Evaluation Test 2-2: ALP inhibition activity of Pro-Hyp and comparisons; format: cell-based; settings: ATDC5, 2.5 mM, after 5 days culture, N group = 1.0
Protocol: The aforementioned PC (PC group), FC (FC group) and PC-CA (PC-CA group) were used, and each collagen peptide was added to a precursory cartilage cell stock ATDC5 culture liquid so as to be 0.1% in end concentration. After 5 days from the culture, each inhibition activity of alkaline phosphatase (ALP) being a marker enzyme for hypertrophied cartilages and calcification was examined. For comparison, the ALP inhibition activity when adding no peptide (N group), the ALP inhibition activity when using peptone (Pe group) of 0.1% in end concentration, and the ALP inhibition activity when using the aforementioned PC-Cont (PC-Cont group) and PC-CA-Cont (PC-CA-Cont group) were also examined. […]

[10] = test system: C57BL/6J mice; test: Evaluation Test 2-4: oral ingestion of Pro-Hyp, articular cartilage evaluation; format: in vivo, mouse; settings: oral feed (Table 13) 3 weeks, n = 4

| Structure (SMILES) | Relative value (%) of ALP [1] [%] | Relative number (%) of TRAP positive multinucleate giant cells (osteoclasts) in culture on dentin slices [2] [%] | Relative number (%) of Pit [2] [%] | Relative area (%) of TRAP positive multinucleate giant cells (osteoclasts) in culture on plastic Petri dish [3] [%] | Relative number (%) of TRAP positive multinucleate giant cells (osteoclasts) in culture on plastic Petri dish [3] [%] | Relative value (%) of ALP [4] [%] | other results |
| --- | --- | --- | --- | --- | --- | --- | --- |
| C[C@H](N)C(=O)N1C[C@H](O)C[C@H]1C(=O)O [Referential Example 1-2, Ala-Hyp] (H-Ala-[Hyp]-OH; N-terminus and C-terminus assumed) | 17 ± 6 | 89 ± 13 | 101 ± 12 | 110 ± 31 | 102 ± 4 | 112 ± 31 |  |
| O=C(O)CNC(=O)[C@@H]1C[C@@H](O)CN1 [Example 1, Hyp-Gly] (H-[Hyp]-Gly-OH; N-terminus and C-terminus assumed) | 76 ± 21 | 9 ± 5 | 2 ± 2 | 7 ± 1 | 9 ± 2 | 140 ± 24 | Relative thickness of articular cartilage ([5]; N group = 1.0): 1.0 ± 0.2; Pathologic scores (articular cartilage part) [5]: 0.3 ± 0.05; Change of skin collagen amount (ratio to total collagen amount) (%) in skin wound recovery process ([6]; 0 day after fur-removing treatment): 2.4 ± 0.2^b %; Change of skin collagen amount (ratio to total collagen amount) (%) in skin wound recovery process ([6]; 1st day after fur-removing treatment): 3.1 ± 0.3^cb %; Change of skin collagen amount (ratio to total collagen amount) (%) in skin wound recovery process ([6]; 2nd day after fur-removing treatment): 4.0 ± 0.2^c %; Change of skin collagen amount (ratio to total collagen amount) (%) in skin wound recovery process ([6]; 4th day after fur-removing treatment): 5.2 ± 0.3^d %; Change of skin collagen amount (ratio to total collagen amount) (%) in skin wound recovery process ([6]; No treatment, feed plus stomach injection once a day): 8.2 ± 0.6^a %; Pathologic scores (articular cartilage part) ([7]; 1 week after injection): 0.4 ± 0.04; Relative thickness of articular cartilage ([7]; 1 week after injection): 0.8 ± 0.2; Pathologic scores (articular cartilage part) ([7]; 3 weeks after injection): 0.2 ± 0.03; Relative thickness of articular cartilage ([7]; 3 weeks after injection): 1.0 ± 0.1 |
| N[C@@H](CO)C(=O)N1C[C@H](O)C[C@H]1C(=O)O [Comparative Example 3, Ser-Hyp] (H-Ser-[Hyp]-OH; N-terminus and C-terminus assumed) | 91 ± 21 | 105 ± 4 | 98 ± 12 | 91 ± 10 | 96 ± 5 | 91 ± 21 |  |
| O=C(O)[C@@H]1C[C@@H](O)CN1C(=O)[C@@H]1CCCN1 [Referential Example 1-1, Pro-Hyp] (H-Pro-[Hyp]-OH; N-terminus and C-terminus assumed) | 12 ± 2 | 17 ± 6 | 9 ± 2 | 120 ± 12 | 130 ± 9 | 115 ± 25 | Pathologic scores (articular cartilage part) ([8]; 1 week after injection): 0.5 ± 0.05; Relative thickness of articular cartilage ([8]; 1 week after injection): 0.7 ± 0.1; Pathologic scores (articular cartilage part) ([8]; 3 weeks after injection): 0.2 ± 0.05; Relative thickness of articular cartilage ([8]; 3 weeks after injection): 1.0 ± 0.1; Relative ALP activity [9]: 0.1 ± 0.02 (*); Relative thickness of articular cartilage ([10]; N group = 1.0): 0.9 ± 0.1; Pathologic scores (articular cartilage part) [10]: 0.5 ± 0.5 |
